Measured values published in article PMC12345631.
No constants are given. Whether binding was seen depends on the method and setting. In cells and extracts the contact can be indirect. A yes stands for co-enrichment or nearness to the bait. Other partners may have been found. Where a sequence is shown, tags or fusion partners need not be part of it.

The chains behind the UniProt entries cited, without tags or fusion partners.
UniProt P53297: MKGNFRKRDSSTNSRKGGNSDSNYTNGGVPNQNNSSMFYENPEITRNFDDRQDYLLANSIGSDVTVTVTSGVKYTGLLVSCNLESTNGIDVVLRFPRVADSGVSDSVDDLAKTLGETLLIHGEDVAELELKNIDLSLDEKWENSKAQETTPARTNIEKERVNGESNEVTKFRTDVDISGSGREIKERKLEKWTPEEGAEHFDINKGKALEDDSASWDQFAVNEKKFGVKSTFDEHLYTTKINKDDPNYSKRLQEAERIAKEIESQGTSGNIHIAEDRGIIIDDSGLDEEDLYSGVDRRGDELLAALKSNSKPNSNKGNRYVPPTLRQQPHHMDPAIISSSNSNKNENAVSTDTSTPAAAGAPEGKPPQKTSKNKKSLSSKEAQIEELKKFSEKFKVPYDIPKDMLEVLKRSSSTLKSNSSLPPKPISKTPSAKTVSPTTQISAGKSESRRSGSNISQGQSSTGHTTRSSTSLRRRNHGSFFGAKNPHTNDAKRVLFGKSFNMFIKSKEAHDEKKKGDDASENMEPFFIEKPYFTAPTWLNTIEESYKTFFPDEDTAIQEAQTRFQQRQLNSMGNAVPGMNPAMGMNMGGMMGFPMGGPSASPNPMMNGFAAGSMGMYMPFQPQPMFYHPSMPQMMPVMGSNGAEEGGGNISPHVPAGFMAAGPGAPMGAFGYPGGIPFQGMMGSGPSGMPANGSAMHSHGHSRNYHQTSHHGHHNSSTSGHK

T1: Mkt1-Flag (Mkt1-G30/R453 allele, the CEN.PK wild type) (S. cerevisiae) (UniProt P40850)
T1 sequence: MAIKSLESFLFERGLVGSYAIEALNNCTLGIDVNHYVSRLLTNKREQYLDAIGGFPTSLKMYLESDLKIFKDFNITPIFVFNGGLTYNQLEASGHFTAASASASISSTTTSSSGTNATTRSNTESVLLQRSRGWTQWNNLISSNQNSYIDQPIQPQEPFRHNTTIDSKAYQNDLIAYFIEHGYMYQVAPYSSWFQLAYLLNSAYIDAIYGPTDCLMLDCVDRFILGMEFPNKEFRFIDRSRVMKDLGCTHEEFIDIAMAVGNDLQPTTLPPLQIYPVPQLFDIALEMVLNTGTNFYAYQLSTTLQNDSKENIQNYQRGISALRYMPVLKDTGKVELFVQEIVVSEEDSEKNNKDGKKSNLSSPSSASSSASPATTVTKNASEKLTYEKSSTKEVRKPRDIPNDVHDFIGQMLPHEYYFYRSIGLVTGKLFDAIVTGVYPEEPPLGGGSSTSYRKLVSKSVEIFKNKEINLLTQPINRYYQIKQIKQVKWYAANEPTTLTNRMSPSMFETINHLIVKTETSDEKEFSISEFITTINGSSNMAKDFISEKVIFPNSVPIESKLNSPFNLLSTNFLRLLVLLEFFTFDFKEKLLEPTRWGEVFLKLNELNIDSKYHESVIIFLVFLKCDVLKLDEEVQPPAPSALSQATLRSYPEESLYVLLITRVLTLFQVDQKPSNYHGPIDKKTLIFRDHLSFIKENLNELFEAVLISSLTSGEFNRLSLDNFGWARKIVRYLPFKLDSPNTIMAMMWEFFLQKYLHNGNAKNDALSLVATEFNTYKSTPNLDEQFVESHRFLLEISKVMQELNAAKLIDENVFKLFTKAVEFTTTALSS


Tests used:
[1] = biological target: T1, Mkt1-Flag (Mkt1-G30/R453 allele, the CEN.PK wild type) (S. cerevisiae); experiment: affinity purification with mass spectrometry; anti-Flag IP from lysates of Mkt1-Flag and Pbp1-Flag yeast grown in YPD (log phase) and 3 h after switch to YPL; whole IP samples, and in a second experiment bands cut from a silver-stained gel (YPL, log phase)
[2] = biological target: Pbp1-Flag (S. cerevisiae) (UniProt P53297); experiment: as above

Molecule	binding [1]	binding [2]
Poly(A) binding protein-binding protein 1 (Pbp1), untagged (from UniProt P53297 1-722)	binds	
Maintenance of K2 killer toxin 1 (Mkt1), untagged (protein, UniProt P40850 1-830) MAIKSLESFLFERGLVGSYAIEALNNCTLGIDVNHYVSRLLTNKREQYLDAIGGFPTSLKMYLESDLKIFKDFNITPIFVFNGGLTYNQLEASGHFTAASASASISSTTTSSSGTNATTRSNTESVLLQRSRGWTQWNNLISSNQNSYIDQPIQPQEPFRHNTTIDSKAYQNDLIAYFIEHGYMYQVAPYSSWFQLAYLLNSAYIDAIYGPTDCLMLDCVDRFILGMEFPNKEFRFIDRSRVMKDLGCTHEEFIDIAMAVGNDLQPTTLPPLQIYPVPQLFDIALEMVLNTGTNFYAYQLSTTLQNDSKENIQNYQRGISALRYMPVLKDTGKVELFVQEIVVSEEDSEKNNKDGKKSNLSSPSSASSSASPATTVTKNASEKLTYEKSSTKEVRKPRDIPNDVHDFIGQMLPHEYYFYRSIGLVTGKLFDAIVTGVYPEEPPLGGGSSTSYRKLVSKSVEIFKNKEINLLTQPINRYYQIKQIKQVKWYAANEPTTLTNRMSPSMFETINHLIVKTETSDEKEFSISEFITTINGSSNMAKDFISEKVIFPNSVPIESKLNSPFNLLSTNFLRLLVLLEFFTFDFKEKLLEPTRWGEVFLKLNELNIDSKYHESVIIFLVFLKCDVLKLDEEVQPPAPSALSQATLRSYPEESLYVLLITRVLTLFQVDQKPSNYHGPIDKKTLIFRDHLSFIKENLNELFEAVLISSLTSGEFNRLSLDNFGWARKIVRYLPFKLDSPNTIMAMMWEFFLQKYLHNGNAKNDALSLVATEFNTYKSTPNLDEQFVESHRFLLEISKVMQELNAAKLIDENVFKLFTKAVEFTTTALSS		binds
